Tested on: E. coli ΔtolC
Assay: Cephalexin-induced cell lysis and filamentation (optical density)
Assay type: cell-based, Escherichia coli
Settings: 10 μg/mL cephalexin alone, FIG. 9B

CC1=C(C(=O)O)N2C(=O)[C@@H](NC(=O)[C@H](N)c3ccccc3)[C@H]2SC1 [cephalexin, reference compound]
cell filamentation and lysis (optical density): cells became filamented and underwent lysis

Reference: patent US9282738B2, “Antimicrobial compositions and methods of use thereof” (WISCONSIN ALUMNI RESEARCH FOUNDATION, priority 2011, dated 2016)
